Assay: solid-phase peptide synthesis
Settings: whole synthesis, linear gradient, 20-60% eluent B/eluent A in 20 min

Ala Arg Ahp Tyr His Asp Gly Val Leu Bph Ahp Asp Cys
final HPLC purity: 98.8%

Ala Leu His MePhe Val Leu Pro Bph Val Trp Val Cys
final HPLC purity: 98.4%

Reference: patent US20250263440A1 (PeptiDream Inc., priority 2019, published 2025)
